# These are yes or no findings as the source states them, for the method shown. Tags and fused reporters may be left off the sequences shown.
# Molecular target: full-length PFV Gag fused to the N-terminus of the GAL4 DNA binding domain (Gag-DB) (prototype foamy virus (PFV))
# Assay: two-hybrid; directed Y2H, Matchmaker System, S. cerevisiae AH109; baits fused to GAL4 DB, preys fused to GAL4 AD; growth on quadruple-dropout (-Leu/-Trp/-Ade/-His) agar after two to four days at 30°C
row,Binder,binding
1,"full-length human PLK5 fused to the GAL4 activation domain (protein, UniProt Q496M5 1-336) MYTVLTGTPPFMASPLSEMYQNIREGHYPEPAHLSANARRLIVHLLAPNPAERPSLDHLLQDDFFTQGFTPDRLPAHSCHSPPIFAIPPPLGRIFRKVGQRLLTQCRPPCPFTPKEASGPGEGGPDPDSMEWDGESSLSAKEVPCLEGPIHLVAQGTLQSDLAGPEGSRRPEVEAALRHLQLCLDVGPPATQDPLGEQQPILWAPKWVDYSSKYGFGYQLLDGGRTGRHPHGPATPRREGTLPTPVPPAGPGLCLLRFLASEHALLLLFSNGMVQVSFSGVPAQLVLSGEGEGLQLTLWEQGSPGTSYSLDVPRSHGCAPTTGQHLHHALRMLQSI",no binding
2,"full-length mouse PLK5 fused to the GAL4 activation domain (enzyme, UniProt Q4FZD7 1-595) MEPRSRRRRSRQLVATFLRDPGSGRVYRRGKLIGKGAFSRCYKLTDMSTSAVFALKVVPRGGAGRLRLRGKVEREIALHSRLRHRNIVAFHAHFADRDHVYMVLEYCSRQSLAHVLKVRRTLTEPEVRYYLRGLVSGLRYLHQQRIVHRDLKPSNFFLNKNMEVKIGDLGLAARVGPAGRCHRVLCGTPNFQAPEVVSRNGHSCKSDIWALGCIMYTVLTGTPPFAAAPLSEMYQNIRDGHYLEPTHLSPSARSLIARLLAPDPAERPSLDHLLQDDFFSQGFTPERLPPHSCHSPPVFAFPPPLGRLFRKVGQLLLTQCRPPCPFTSKEASGPGEEGTEPDHMEAGNEERDPLCTEGRIHLLTLGTPRTGLAGPKGSLALQLEVATRKLFLCLDAGPMAGQDPPGEQRPVLWAPKWVDYSLKYGFGYQLSDGGSGVLFRDGSHMALRPQGGHVSYQPDQGTLWTFTLRDVPSPLRAKLAVLRLFACYMQRRLREEGTVPMPATPASPDISLLSFIADSQAMVMLFSNGTVQVSLKTSQTQLVLSGEDEDLLLTLQEPGGPAVGVSYTLDVLRSHGFTLAVHHHLRHGLHLLQSV",no binding
3,"polo-box domain of human PLK4 fused to the GAL4 activation domain (domain or fragment, UniProt O00444 886-964) QLLKSVFVKNVGWATQLTSGAVWVQFNDGSQLVVQAGVSSISYTSPNGQTTRYGENEKLPDYIKQKLQCLSSILLMFSN",no binding

# — paper PMC5006980
